The text below walks through data of paper PMC11750108, “FlbB forms a distinctive ring essential for periplasmic flagellar assembly and motility in Borrelia burgdorferi” (PLOS Pathogens, 2025).

The target in this test is MBP-FlcB (B. burgdorferi) (UniProt O51085). The test can be described thus: pull-down; E. coli cells expressing FLAG-FlbB-His6 and MBP-FlcB mixed ~1:1, French pressed, purified on amylose resin; blot probed with anti-FLAG antibody.

No constants are given. Whether binding was seen depends on the method and setting. Binding seen in cells or lysates may run through a third protein. Binding can be weak; no strength is given. Where a sequence is shown, tags or fusion partners need not be part of it.

B1: FLAG-FlbB-His6 (deleted the first 42 aa from the FlbB) (domain or fragment)
chain: FPEFVRTKLLGETSLVFDHNSNIILDEARLVKEREAIDIKNQQIEKLKEDLKLKEDSLNKLEFELKQKQKDLDLKQKVIDDIINKYNDEEANILQTAVYLMNMPPEDAVKRLEDLNPELAISYMRKIEELSKKEGRLSIVPYWLSLMDSKKAAILIRKMSVSSLE
notes: FlbB, periplasmic flagellar collar protein of Borrelia burgdorferi (205 amino acids); the first 42 aa (with the N-terminal transmembrane helix) deleted; The deletion of the first 42 aa is stated only for the SEC-SAXS sample; Monomer estimated at 20.85 kDa; also called FlbB-6His; source: E. coli codon plus cells; in lysate of mixed cells (pull-downs); purified recombinant (SEC-SAXS, far-western); …
As to B1, the binding result is “binds”.
